# Measurements taken from the supplement of paper PMC11732987, “Enantioselective OTUD7B fragment discovery through chemoproteomics screening and high-throughput optimisation” (Communications Chemistry, 2025).
# This is one part of the list. The data scatter; read single values as rough.
# Legend:
# [1] = compound: ClCC(=O)N[C@@H]1CCCc2ccccc12; test: log2 mean competition ratio of IA-DTB cysteine labelling (DMSO/compound) (log2 ratio); higher = stronger cysteine engagement by compound; settings: treatment time: 4 h, cell line lysate: HEK293T
# Protocol: (§1)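 IA-DTB competitive cysteine chemoproteomics in HEK293T RIPA lysate. Lysates were treated with compound 29 or 30 at 50 or 200 µM for 4 h, then IA-DTB (500 µM, 1 h), trypsin-digested, NeutrAvidin-enriched and analysed by diaPASEF. Competition ratio = intensity DMSO / intensity compound (n=4 treated, n=64 DMSO); binding: mean log2 CR ≥ 1 and p ≤ 0.05 plus QC filters. Target is the cysteine site.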
# [2] = compound: ClCC(=O)N[C@H]1CCCc2ccccc12; test: as above; settings: treatment time: 4 h, cell line lysate: HEK293T
# Protocol: as §1
Target,log2 mean competition ratio ([1]; 50 µM),log2 mean competition ratio ([1]; 200 µM),log2 mean competition ratio ([2]; 50 µM),log2 mean competition ratio ([2]; 200 µM)
COPA C254 (UniProt P53621),0.366,-0.149,0.0853,-0.328
COG5 C173 (UniProt Q9UP83),0.221,-0.33,-0.117,-0.263
CHTF18 C373 (UniProt Q8WVB6),-0.0221,-0.0578,-0.383,-0.0954
CLMN C445,-0.136,-0.22,-0.00685,0.228
CPD C720 (UniProt O75976),0.108,0.276,0.224,0.219
COIL C170 (UniProt P38432),0.149,-0.144,0.0311,0.00803
CLTCL1 C934 (UniProt P53675),0.00312,0.0689,-0.451,0.122
COG8 C595 (UniProt Q96MW5),-0.0384,-0.168,0.0417,-0.18
CRBN C205 (UniProt Q96SW2),0.29,-0.0733,-0.328,-0.2
COPB1 C623 (UniProt P53618),-0.178,-0.255,0.0839,0.103
CNPY3 C206 (UniProt Q9BT09),0.368,0.509,0.395,0.543
CNBP C57 (UniProt P62633),0.271,-0.465,0.125,-0.321
COG2 C358 (UniProt Q14746),-0.166,0.187,-0.0861,0.00638
CNOT1 C1706 (UniProt A5YKK6),0.0341,0.0173,0.174,0.0392
CLCC1 C279 (UniProt Q96S66),0.0122,-0.108,0.0155,0.03
CPT1A C96 (UniProt P50416),0.0251,0.0069,-0.0475,0.105
CLPX C538 (UniProt O76031),0.0392,-0.0715,-0.0639,-0.155
CHML C320 (UniProt P26374),-0.109,0.169,0.556,0.371
COIL C126 (UniProt P38432),-0.198,0.0401,0.0885,0.234

Target,log2 mean competition ratio ([1]; 50 µM),log2 mean competition ratio ([1]; 200 µM),log2 mean competition ratio ([2]; 50 µM),log2 mean competition ratio ([2]; 200 µM)
COG4 C569 (UniProt Q9H9E3),-0.135,0.205,-0.0744,0.242
CPE C300,0.331,0.429,0.453,0.508
CLTCL1 C491 (UniProt P53675),0.106,-0.156,0.165,-0.426
CKAP2 C562 (UniProt Q8WWK9),-0.18,0.0372,-0.283,0.0565
CNKSR3 C171,0.273,-0.572,0.13,-0.31
CLASP1 C1423 (UniProt Q7Z460),-0.358,0.109,0.193,0.071
CLK4 C81 (UniProt Q9HAZ1),-0.0114,0.0048,-0.715,-0.104
COQ8B C293 (UniProt Q96D53),-0.0221,0.092,0.322,0.0814
CPOX C373 (UniProt P36551),0.354,0.335,0.0872,0.401
CPSF3 C345 (UniProt Q9UKF6),-0.354,-0.204,0.286,-0.0477
CISD2 C92 (UniProt Q8N5K1),0.0452,-0.214,-0.195,-0.117
CLU C313 (UniProt P10909),-0.333,0.066,0.31,-0.269
CLTCL1 C617 (UniProt P53675),0.0957,-0.313,-0.0213,-0.392
CLIP1 C1022,-0.0849,-0.0771,-0.0649,-0.209
CMTR1 C593 (UniProt Q8N1G2),-0.0471,-0.176,-0.215,-0.165
CNTRL C1375 (UniProt Q7Z7A1),-0.369,0.426,-0.577,0.0926
CHD8 C1780 (UniProt Q9HCK8),0.186,0.00846,0.0605,0.166
CPSF1 C1020 (UniProt Q10570),0.499,-0.303,0.245,-0.602
CNOT1 C890 (UniProt A5YKK6),0.0211,-0.231,0.37,-0.152

# An excerpt of these results, as tab-separated lines:
Target	log2 mean competition ratio ([1]; 50 µM)	log2 mean competition ratio ([1]; 200 µM)	log2 mean competition ratio ([2]; 50 µM)	log2 mean competition ratio ([2]; 200 µM)
CLTCL1 C934 (UniProt P53675)	0.00312	0.0689	-0.451	0.122
CLTCL1 C491 (UniProt P53675)	0.106	-0.156	0.165	-0.426
